Laboratory results taken from patent US20250186600A1, “EXCIPIENT COMPOUNDS FOR PROTEIN FORMULATIONS” (Comera Life Sciences, Inc., priority 2020, published 2025).

Test system: proteins described in Table 50
Test: DLS diffusion interaction parameter kD (Example 49)
Format: physicochemical
Conditions: excipient stock concentration 200 mM, mixed 1:1 with protein solution, 20 mM His HCl pH 6, 25° C.
Procedure: The resulting solution was titrated to pH 6 by dropwise addition of 1 M hydrochloric acid. After pH adjustment, the buffer was diluted to a final volume of 1 L in a volumetric flask with Type 1 ultrapure water. All excipients used in this Example, listed in Table 50 below, were of the highest purity, and were obtained from Sigma Aldrich (St. Louis, MO) or Cayman Chemical (Ann Arbor, MI).
A series of six test protein solutions were prepared using the proteins described in Table 50, ranging in protein concentration from about 4 mg/mL to about 20 mg/mL, all in 20 mM His HCl buffer at pH 6. […] A second centrifuge step was completed to remove air bubbles. The diffusion interaction parameter (kD) of these protein-excipient formulations was measured by dynamic light scattering (DLS) in dilute solution as a way of probing the impact of excipients on protein-protein interactions (PPI). […] A more negative kD indicated a stronger net attractive PPI and a more positive kD indicated a stronger net repulsive PPI.

- Omalizumab kD (omalizumab): -16.5 mL/g
- Ustekinumab kD (ustekinumab): -4.3 mL/g
Structure (SMILES): NCCC[C@H](N)C(=O)O [L-ornithine]
